# Test system: SKOV3 cells
# Assay: Cell viability assay (dose-response)
# Assay type: cell-based, human
# Conditions: read-out: IC50 for cisplatin
# Experimental: Cell viability was measured by MTS assay (Abcam, #ab197010) or by CellTiter-Glo™ assay (Promega, #G7570). Cells were seeded at 96-well plates at densities of 2000˜5000 cells per well overnight. Treatment was added to the cells at indicated concentrations for 72 h. Cell viability was measured by incubating with MTS reagent for 4 h and reading absorbance at 490 nm or incubating with CellTier-Glo™ reagent for 10 min and reading luminescence by a plate reader. Six replicates were used for each group.
# In addition, isogenic PEO1/PEO4 cell lines derived from the same patient were studied, at the time of a platinum sensitive (PEO1) and platinum resistant-recurrence (PEO4).
# Having shown decreased glucose-derived anabolism and increased fatty acid uptake in cisplatin-resistant ovarian cancer cells, whether this metabolic feature can be used for differentiation of cisplatin-resistant from cisplatin-sensitive cancer cells was explored. […] In Table 2 below, quantitation of glucose-d7 (G-d7), PA-d31, and OA-d34 are shown as area fraction of C-D signal out of total cellular area, in mean values.
smiles,measurement,value
N.N.[Cl][Pt][Cl] [cisplatin],IC50,10.1 µM

# — patent publication US12055536B2, “Device for detection of cellular stress” (Trustees of Boston University, priority 2021, dated 2024)
